This is an account of results in patent US20090069241A1, “Compositions and Methods for Use of Pigment Epithelial Derived Factor (PEDF) Peptide Fragments” (Yale University, priority 2006, published 2009).

Sequences of proteins named here, by UniProt entry; tags and fusion partners are left off. Residues count along the entry.
UniProt P35968, residues 20-764: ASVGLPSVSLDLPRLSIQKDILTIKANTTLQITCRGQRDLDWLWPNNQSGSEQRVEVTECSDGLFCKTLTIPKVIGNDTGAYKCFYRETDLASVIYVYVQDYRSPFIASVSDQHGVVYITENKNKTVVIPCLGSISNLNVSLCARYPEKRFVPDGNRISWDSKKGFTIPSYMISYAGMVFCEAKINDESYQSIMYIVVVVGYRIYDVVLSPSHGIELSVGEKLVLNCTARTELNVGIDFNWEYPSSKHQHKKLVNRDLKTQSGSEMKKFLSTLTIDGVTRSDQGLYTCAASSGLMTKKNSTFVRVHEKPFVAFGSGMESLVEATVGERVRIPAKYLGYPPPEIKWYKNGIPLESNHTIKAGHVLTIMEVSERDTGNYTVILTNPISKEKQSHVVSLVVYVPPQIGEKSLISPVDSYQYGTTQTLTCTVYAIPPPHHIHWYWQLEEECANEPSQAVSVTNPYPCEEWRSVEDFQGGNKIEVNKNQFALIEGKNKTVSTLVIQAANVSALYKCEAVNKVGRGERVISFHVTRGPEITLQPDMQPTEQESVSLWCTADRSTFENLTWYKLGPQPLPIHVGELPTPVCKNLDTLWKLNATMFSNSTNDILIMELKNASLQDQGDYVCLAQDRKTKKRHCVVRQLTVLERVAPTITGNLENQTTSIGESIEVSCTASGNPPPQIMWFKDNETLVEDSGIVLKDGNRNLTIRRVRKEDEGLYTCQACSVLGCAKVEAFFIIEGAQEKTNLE

No constants are given. Whether binding was seen depends on the method and setting. Some binding calls cover weakened binding; strength is not graded here. Sequences can lack the tags named with a protein.

The assay deals with VEGF receptor KDR (VEGFR2) (UniProt P35968). Put plainly: ELISA.

B1: codon-optimized fusion protein (coPEDF): thioredoxin fused via His6 tag, thrombin cleavage site and S-Tag to the N-terminal of human PEDF (protein, not shown: large carriers; small tags and cut ends)
chain: QNPASPPEEGSPDPDSTGALVEEEDPFFKVPVNKLAAAVSNFGYDLYRVRSSMSPTTNVLLSPLSVATALSALSLGADERTESIIHRALYYDLISSPDIHGTYKELLDTVTAPQKNLKSASRIVFEKKLRIKSSFVAPLEKSYGTRPRVLTGNPRLDLQEINNWVQAQMKGKLARSTKEIPDEISILLLGVAHFKGQWVTKFDSRKTSLEDFYLDEERTVRVPMMSDPKAVLRYGLDSDLSCKIAQLPLTGSMSIIFFLPLKVTQNLTLIEESLTSEFIHDIDRELKTVQAVLTVPKLKLSYEGEVTKSLQEMKLQSLFDSPDFSKITGKPIKLTQVEHRAGFEWNEDGAGTTPSPGLQPAHLTFPLDYHLNQPFIFVLRDTDTGALLFIGKILDPRGP
Regarding B1, the binding entry is “binds”.
